The supplement of paper PMC12067093, “Discovery and optimisation of a covalent ligand for TRIM25 and its application to targeted protein ubiquitination” (Chemical Science, 2025)
This is one part of the list.

Compound: Cc1cc(ccc1-c1ccccc1)C(=O)N1CCCN(CC1)C(=O)CCl [compound 10]
Assay: probe-labelled cysteine peptide fold change vs DMSO (competition) (log2 fold change); higher = less target engagement (more negative = stronger competition)
Conditions: THP-1, incubation time: 4 h
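Also: competitive profiling in live THP-1 cells: cysteine peptides tagged with an iodoacetamide desthiobiotin (IA-DTB) probe, intensity after compound treatment relative to DMSO-treated cells.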

| Target | probe-labelled cysteine peptide fold change (10 µM) | probe-labelled cysteine peptide fold change (50 µM) |
| --- | --- | --- |
| RAB3GAP2_Q9H2M9_793_DILDKPQSICCLHTMLSLLSK (UniProt Q9H2M9) | -0.128 | -0.2 |
| RACK1_P63244_207_TNHIGHTGYLNTVTVSPDGSLCASGGK (UniProt P63244) | 0.0693 | 0.0524 |
| RAB3GAP2_Q9H2M9_391_HGESICLSPCNTLAAVTDDFGR (UniProt Q9H2M9) | -0.0337 | 0.162 |
| RABGAP1_Q9Y3P9_230_GHDGTPESDCFAFTESHYNAELFR (UniProt Q9Y3P9) | -0.209 | -0.0249 |
| RABGGTA_Q92696_516_LQELLLCNNR (UniProt Q92696) | -0.0554 | -0.0882 |
| RAD21_O60216_35_AHVFECNLESSVESIISPK (UniProt O60216) | 0.154 | 0.13 |
| RAD21_O60216_392_CLTPLVPEDLRK (UniProt O60216) | 0.0787 | 0.103 |
| PUS7L_Q9H0K6_561_VVQGDLVCLDEDIDDENFPNSK (UniProt Q9H0K6) | -0.0134 | -0.0822 |
| RABEPK_Q7Z6M1_222_FYDDLHCIDISDMK (UniProt Q7Z6M1) | 0.0511 | -0.0546 |
| RABGGTA_Q92696_145_NFHCWDYR (UniProt Q92696) | 0.0322 | 0.248 |
| QARS_P47897_111_SHPLDPIDTVDFERECGVGVIVTPEQIEEAVEAAINR (UniProt P47897) | -0.047 | 0.015 |
| RABL3_Q5HYI8_27_SSLVHLLCQNQVLGNPSWTVGCSVDVR (UniProt Q5HYI8) | 0.146 | -0.025 |
| RACK1_P63244_153_YTVQDESHSEWVSCVR (UniProt P63244) | 0.234 | 0.176 |
| RAB10_P61026_124_CDMDDKR (UniProt P61026) | -0.331 | -0.218 |
| PUS7_Q96PZ0_443_CVEGQLLR (UniProt Q96PZ0) | -0.0651 | -0.12 |
| PYCR2_Q96C36_225_MLLDSEQHPCQLK (UniProt Q96C36) | -0.207 | -0.344 |
| PYCR1_P32322_120_CMTNTPVVVR (UniProt P32322) | 0.0918 | -0.0741 |
| RAB3IL1_Q8TBN0_29_STDPCQGHR (UniProt Q8TBN0) | -0.335 | -0.388 |
| RAB7A_P51149_83+84_GADCCVLVFDVTAPNTFK (UniProt P51149) | 0.0125 | 0.271 |
| RAB20_Q9NX57_179_MLDEQDVPAAEQMCFETSAK (UniProt Q9NX57) | -0.442 | -0.255 |
| PWP2_Q15269_630_FVCIYHVR (UniProt Q15269) | -0.0238 | 0.592 |

Single values from above:
Value of RABEPK_Q7Z6M1_222_FYDDLHCIDISDMK (UniProt Q7Z6M1) under probe-labelled cysteine peptide fold change (10 µM): 0.0511
Value of PWP2_Q15269_630_FVCIYHVR (UniProt Q15269) under probe-labelled cysteine peptide fold change (10 µM): -0.0238

Following part:

| Target | probe-labelled cysteine peptide fold change (10 µM) | probe-labelled cysteine peptide fold change (50 µM) |
| --- | --- | --- |
| QRSL1_Q9H0R6_203_NPAAHCGLVGFK (UniProt Q9H0R6) | 0.356 | 0.514 |
| RAB3GAP2_Q9H2M9_391+395_RHGESICLSPCNTLAAVTDDFGR (UniProt Q9H2M9) | -0.163 | -0.027 |
| QSOX2_Q6ZRP7_131_NQAVCHDYDIHFYPTFR (UniProt Q6ZRP7) | -0.168 | -0.13 |
| RAB3GAP2_Q9H2M9_395_RHGESICLSPCNTLAAVTDDFGR (UniProt Q9H2M9) | 0.195 | 0.126 |
| RABGAP1L_Q5R372_139_LTYLGCMK (UniProt Q5R372) | 0.0897 | 0.0332 |
| RABGGTA_Q92696_99_AELGFLESCLR (UniProt Q92696) | -0.0439 | -0.225 |
| RAD50_Q92878_133_CAEIDREMISSLGVSK (UniProt Q92878) | -0.195 | -0.429 |
| RAB3IL1_Q8TBN0_97_LKDEECER (UniProt Q8TBN0) | -0.068 | -0.539 |
| QSOX2_Q6ZRP7_539_LQWPTPDLCPACHEEIK (UniProt Q6ZRP7) | 0.01 | -0.0211 |
| QSOX1_O00391_110_AWRPALYLAALDCAEETNSAVCR (UniProt O00391) | -0.147 | -0.174 |
| RAB3GAP1_Q15042_858_CEQEEEK (UniProt Q15042) | -0.0888 | 0.245 |
| RAB8A_P61006_123_CDVNDK (UniProt P61006) | -0.202 | 0.0957 |
| RABGGTA_Q92696_132_ELELCAR (UniProt Q92696) | 0.0503 | 0.0777 |
| RAD23A_P54725_344_ALGFPESLVIQAYFACEK (UniProt P54725) | 0.183 | 0.223 |
| RAD9A_Q99638_129+141_THNLSFQDCESLQAVFDPASCPHMLR (UniProt Q99638) | -0.413 | -0.127 |
| RACK1_P63244_240+249_HLYTLDGGDIINALCFSPNRYWLCAATGPSIK (UniProt P63244) | -0.0719 | -0.365 |
| QSOX1_O00391_165_LIDALESHHDTWPPACPPLEPAKLEEIDGFFAR (UniProt O00391) | -0.103 | -0.409 |
| RACGAP1_Q9H0H5_93_AEADCEK (UniProt Q9H0H5) | 0.0715 | 0.13 |
| QTRT1_Q9BXR0_317_DFGPIDPECTCPTCQK (UniProt Q9BXR0) | -0.0145 | 0.303 |
| RABGGTA_Q92696_371_STVLQSELESCK (UniProt Q92696) | 0.037 | 0.0651 |
| RAD54L2_Q9Y4B4_533_QEFSNMFERPILNGQCIDSTPQDVR (UniProt Q9Y4B4) | -0.116 | -0.125 |

Single records, from the list above. Values in the order: probe-labelled cysteine peptide fold change (10 µM) | probe-labelled cysteine peptide fold change (50 µM)
RAB3IL1_Q8TBN0_97_LKDEECER (UniProt Q8TBN0) is listed with -0.068 | -0.539
RAD54L2_Q9Y4B4_533_QEFSNMFERPILNGQCIDSTPQDVR (UniProt Q9Y4B4) is listed with -0.116 | -0.125
QTRT1_Q9BXR0_317_DFGPIDPECTCPTCQK (UniProt Q9BXR0) is listed with -0.0145 | 0.303
QSOX1_O00391_165_LIDALESHHDTWPPACPPLEPAKLEEIDGFFAR (UniProt O00391) is listed with -0.103 | -0.409

Next results.

| Target | probe-labelled cysteine peptide fold change (10 µM) | probe-labelled cysteine peptide fold change (50 µM) |
| --- | --- | --- |
| QSOX1_O00391_393_VNWIGCQGSEPHFR (UniProt O00391) | 0.0191 | -0.114 |
| RAB8B_Q92930_123_CDMNDK (UniProt Q92930) | -0.0137 | 0.218 |
| RAB11FIP1_Q6WKZ4_1007_SSTLDIGALSLGLVVPCPER (UniProt Q6WKZ4) | -0.0834 | -0.1 |
| RAB9A_P51151_142_QVSTEEAQAWCR (UniProt P51151) | -0.0691 | 0.14 |
| RAD54L2_Q9Y4B4_453_ALCRPGPDVVICDEGHR (UniProt Q9Y4B4) | -0.126 | 0.141 |
| RAD50_Q92878_102_SMVCTQK (UniProt Q92878) | 0.0795 | 0.0477 |
| RABIF_P47224_97_FLVCADCEIGPIGWHCLDDK (UniProt P47224) | 0.11 | 0.0401 |
| PYCR3_Q53H96_49+56_NLCHFQALGCR (UniProt Q53H96) | -0.0782 | -0.183 |
| QARS_P47897_556_VGVTVAQTTMEPHLLEACVR (UniProt P47897) | 0.0226 | 0.133 |
| PYCR1_P32322_262_SLLINAVEASCIR (UniProt P32322) | 0.0279 | 0.0718 |
| RABEP1_Q15276_263_ELHEVCHLLEQER (UniProt Q15276) | 0.00619 | 0.0126 |
| RAB8A_P61006_123_CDVNDKR (UniProt P61006) | -0.207 | -0.121 |
| RAD50_Q92878_133_CAEIDR (UniProt Q92878) | -0.158 | -0.0778 |
| RADIL_Q96JH8_298_PSISLSAPDILPLHCTIR (UniProt Q96JH8) | 0.0599 | 0.353 |
| RAD50_Q92878_157_AVLNNVIFCHQEDSNWPLSEGK (UniProt Q92878) | 0.145 | 0.125 |
| RAC1_P63000_105_HHCPNTPIILVGTK (UniProt P63000) | 0.0268 | -0.0534 |
| QARS_P47897_111_ECGVGVIVTPEQIEEAVEAAINR (UniProt P47897) | 0.0136 | 0.0753 |
| RAI14_Q9P0K7_139_TALHYAAAQGCLQAVQILCEHK (UniProt Q9P0K7) | 0.0635 | -0.0217 |
| PUS3_Q9BZE2_420_CQGLESR (UniProt Q9BZE2) | -0.377 | -0.224 |
| RAB36_O95755_247_DLLSGAACEQAEADAVHLAR (UniProt O95755) | -0.0899 | -0.308 |
| RAB3GAP2_Q9H2M9_896_QLEDCLILQTLLHSK (UniProt Q9H2M9) | 0.131 | -0.0661 |

| Target | probe-labelled cysteine peptide fold change (10 µM) | probe-labelled cysteine peptide fold change (50 µM) |
| --- | --- | --- |
| RAB3GAP2_Q9H2M9_828_TACIQSENNGAALLSAHVGHSVAAQISNNMTEK (UniProt Q9H2M9) | 0.0246 | -0.107 |
| PWWP2B_Q6NUJ5_480_LHTQSVSECITEDGR (UniProt Q6NUJ5) | 0.0945 | 0.00287 |
| QSER1_Q2KHR3_283_SCSTEQPLTSTK (UniProt Q2KHR3) | -0.196 | -0.558 |
| PXN_P49023_523_ECFTPFVNGSFFEHDGQPYCEVHYHER (UniProt P49023) | 0.032 | 0.12 |
| RABGAP1_Q9Y3P9_582_GEVWQLLAGCHNNDHLVEK (UniProt Q9Y3P9) | -0.137 | 0.0214 |
| PWP2_Q15269_647_RFEISCNLSLDAMEEFLNR (UniProt Q15269) | 0.232 | 0.365 |
| RAB11FIP5_Q9BXF6_337_SSLCVNGSHIYNEEPQGPVR (UniProt Q9BXF6) | -0.249 | -0.229 |
| RAD50_Q92878_325_LVDCHR (UniProt Q92878) | 0.155 | 0.274 |
| RAD23B_P54727_390_ALGFPEGLVIQAYFACEK (UniProt P54727) | 0.206 | 0.231 |
| RAD51B_O15315_32_HQILTCQDFLCLSPLELMK (UniProt O15315) | -0.072 | -0.135 |
| QRSL1_Q9H0R6_483_AFCDQQLLTVAK (UniProt Q9H0R6) | 0.104 | 0.0537 |
| RABEPK_Q7Z6M1_243_LNPTGAAPAGCAAHSAVAMGK (UniProt Q7Z6M1) | -0.00823 | -0.138 |
| RAD21_O60216_392_CLTPLVPEDLR (UniProt O60216) | 0.12 | 0.15 |
| PYGB_P11216_446_INMAHLCVIGSHAVNGVAR (UniProt P11216) | 0.0264 | 0.0636 |
| R3HCC1L_Q7Z5L2_665_VFCSYQK (UniProt Q7Z5L2) | 0.0217 | -0.498 |
| RACK1_P63244_249_HLYTLDGGDIINALCFSPNRYWLCAATGPSIK (UniProt P63244) | -0.203 | -0.584 |
| RAB18_Q9NP72_160_TCDGVQCAFEELVEK (UniProt Q9NP72) | -0.00893 | 0.0338 |
| PUS7L_Q9H0K6_207_ELCHLVSEEEAFDFFK (UniProt Q9H0K6) | 0.162 | 0.362 |
| RAB18_Q9NP72_155+160_TCDGVQCAFEELVEK (UniProt Q9NP72) | -0.245 | -0.566 |
